Literature values in patent US6623730B1, “Therapeutic uses of polymers and oligomers comprising gamma-hydroxybutyrate” (Tepha, Inc., priority 1999, dated 2003).
At least one compound was matched to its structure with a doubt left.

Test system: sleep
Conditions: rat, large dose; cited from earlier work

## O=C(O)CCCO [GHB Monomer, Gamma-hydroxybutyrate]
  sleep duration: about two
